Data as given in PubChem BioAssay AID504764 (Drosophila RNAi Screening Center, 2011)

Screen: 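Genome-wide screen for regulators of Notch-driven gene expression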 (primary screen)
Cell system: Drosophila Kc167 cells
Reagents: long dsRNA against Drosophila genes
Duration: about 5 days (4 days dsRNA, then 24 h after transfection)
Treatment: transfection of constitutively active membrane-tethered Notch lacking the extracellular domain, read 24 h later
Detection: 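Light from a Notch-responsive E(spl)m3 luciferase reporter under active Notch, with control-promoter and no-Notch reporter wells to normalise; raw counts from paired wells a and b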
Reading the numbers: induced reporter light, run 1, well a and induced reporter light, run 1, well b: higher = more light from the Notch target reporter with active Notch; control promoter light, run 1, well a and control promoter light, run 1, well b: higher = more light from the viral control promoter (cell number, transfection, viability); uninduced reporter light, run 1, well a: higher = more light from the Notch target reporter without active Notch
Rule for the call: 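Wells with low control signal or poorly matching duplicates excluded; duplicates averaged; per source plate, z beyond ±2 for induced/control log2 ratio or beyond ±1.8 for induced/uninduced marks a hit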
Calls: active = modifier hit (raised or lowered Notch signal); inactive = not a hit
The deposit covers about 22,000 reagents; this is an unselected part of those that have a named target and a result. Over the whole deposit, 403 (1.9%) were called active. 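Unnormalised raw counts per well; ratio z-scores behind the hit calls and whether each hit raises or lowers signal are not deposited.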 Not given: the amount of reagent.

Silencing of CG15611 [SID104186355] came out at: induced reporter light, run 1, well a = 84150; induced reporter light, run 1, well b = 87810; control promoter light, run 1, well a = 1.62e5; control promoter light, run 1, well b = 1.96e5; uninduced reporter light, run 1, well a = 9895; inactive.
CG15611 [SID104186356] scored induced reporter light, run 1, well a = 1.09e5; induced reporter light, run 1, well b = 1.12e5; control promoter light, run 1, well a = 1.22e5; control promoter light, run 1, well b = 1.15e5; uninduced reporter light, run 1, well a = 8188; inactive.
Against dnc [SID104197550], the values are induced reporter light, run 1, well a = 37090; induced reporter light, run 1, well b = 36575; control promoter light, run 1, well a = 42950; control promoter light, run 1, well b = 42715; uninduced reporter light, run 1, well a = 6065; inactive.
Depletion of dnc [SID104197551] resulted in: induced reporter light, run 1, well a = 83265; induced reporter light, run 1, well b = 1.08e5; control promoter light, run 1, well a = 1.86e5; control promoter light, run 1, well b = 1.63e5; uninduced reporter light, run 1, well a = 6835; inactive.
dnc [SID104197703] gave induced reporter light, run 1, well a = 85610; induced reporter light, run 1, well b = 95965; control promoter light, run 1, well a = 1.34e5; control promoter light, run 1, well b = 1.63e5; uninduced reporter light, run 1, well a = 7350; inactive.
Against dnc [SID104198555], the values are induced reporter light, run 1, well a = 88580; induced reporter light, run 1, well b = 68385; control promoter light, run 1, well a = 1.28e5; control promoter light, run 1, well b = 1.42e5; uninduced reporter light, run 1, well a = 6435; inactive.
Depletion of dnc [SID104198556] gave: induced reporter light, run 1, well a = 1.67e5; induced reporter light, run 1, well b = 1.35e5; control promoter light, run 1, well a = 2.42e5; control promoter light, run 1, well b = 2.59e5; uninduced reporter light, run 1, well a = 9805; inactive.
Against CRMP [SID104191865], the values are induced reporter light, run 1, well a = 1.09e5; induced reporter light, run 1, well b = 98245; control promoter light, run 1, well a = 88810; control promoter light, run 1, well b = 87770; uninduced reporter light, run 1, well a = 9380; inactive.
For CRMP [SID104192137] the deposit lists induced reporter light, run 1, well a = 1.28e5; induced reporter light, run 1, well b = 1.17e5; control promoter light, run 1, well a = 76145; control promoter light, run 1, well b = 69320; uninduced reporter light, run 1, well a = 9460; inactive.
After knock-down of TyrR [SID104196034] the results were induced reporter light, run 1, well a = 2.35e5; induced reporter light, run 1, well b = 1.83e5; control promoter light, run 1, well a = 2.59e5; control promoter light, run 1, well b = 2.68e5; uninduced reporter light, run 1, well a = 15865; inactive.
Against CG5506 [SID104190303], the entry reads induced reporter light, run 1, well a = 2.17e5; induced reporter light, run 1, well b = 1.68e5; control promoter light, run 1, well a = 2.85e5; control promoter light, run 1, well b = 2.40e5; uninduced reporter light, run 1, well a = 12065; inactive.
After knock-down of CG10748 [SID104189589], the screen gave induced reporter light, run 1, well a = 1.37e5; induced reporter light, run 1, well b = 1.49e5; control promoter light, run 1, well a = 1.73e5; control promoter light, run 1, well b = 1.26e5; uninduced reporter light, run 1, well a = 6965; inactive.
